Measurements: article PMC9886892, “Imidazolium salts as an alternative for anti-Leishmania drugs: Oxidative and immunomodulatory activities” (Frontiers in Immunology, 2023)

Key:
human erythrocytes = tested on: human erythrocytes
Protocol: Triton X-100 1% was used as positive control. The hemolytic assay was performed according to the procedure used by ([13]). […] The microplate was incubated at 37°C under agitation (90 rpm) for 60 min. Then, the suspension was centrifuged at 3,000 rpm for 5 min, and the absorbance of the supernatant was measured at 540 nm using a spectrophotometer EZ Read 400 from Biochrom. Triton X-100 1% and PBS were used as positive and negative control, respectively. […] The selectivity index (SI) (CC50 or RBC50/IC50 against L. amazonensis) were determined for each compound.

in vitro = details: mouse
[1] = tested on: Macrophages RAW 264.7 cell line
[2] = tested on: L. amazonensis amastigotes in RAW 264.7 macrophages; test: Intramacrophage anti-amastigote activity; type: cell-based; details: Leishmania amazonensis, RAW264.7, 48 h, read-out: IC50 (CI 95%): concentration of compound that causes 50% of L. amazonensis amastigotes mortality
Protocol: The anti-amastigote assay was performed as previously described ([13]). Macrophages RAW 264.7 cell line (ATCC) were cultured in DMEM plus 10% fetal bovine serum (FBS), penicillin (100 U/mL) and streptomycin (100 µg/mL) until reaching 90% confluence, when were distributed into 96-well microplates at a concentration of 2 x 10^5 cells/well in the presence of DMEM. […] The leishmanicidal activity of macrophages was assessed by determining the number of viable parasites (4 replicates) using a hemocytometer.

[3] = tested on: L. infantum chagasi promastigotes; test: microbe, parasite or virus in culture; details: Leishmania infantum, 48 h, read-out: IC50 (CI 95%): concentration of compound that causes 50% of L. infantum chagasi promastigotes mortality
[4] = tested on: L. amazonensis promastigotes

Which “SI: selectivity index, ratio of CC50 for RBC hemolysis/IC50 for L. amazonensis amastigotes” value (human erythrocytes) does the source give for CCCCCCCCCCCCCCCC[n+]1ccccc1.O.[Cl-] [C16PyrCl, 1-hexadecylpyridinium chloride monohydrate, reference compound] here?
The value was 107.

What about the “SI: selectivity index, ratio of CC50 for RBC hemolysis/IC50 for L. amazonensis promastigotes” value (human erythrocytes) of the same compound?
The value was 5.3.

What about the “RBC50 (CI 95%): concentration of compound that causes 50% of red blood cell hemolysis” value (human erythrocytes; human) of the same compound?
Its value is 21.3 (19.2-23.7) µM.

What about the CC50 (in vitro) of the same compound?
Its CC50 is 6.3 µM.

What about the “SI: selectivity index, ratio of CC50 for macrophage/IC50 for L. amazonensis amastigotes” value [1] of the same compound?
The value was 31.5.

And the “SI: selectivity index, ratio of CC50 for macrophage/IC50 for L. amazonensis promastigotes” value [1]?
The value was 1.6.

What about the IC50 [2] of the same compound?
Its IC50 is 0.2 µM.

What about the IC50 [3] of the same compound?
Its IC50 is 2.6 µM.

And the IC50 [4]?
Its IC50 is 4 µM.

And the “concentration causing significant parasite mortality” value [4]?
The value was at least 5 µM.
